Where two headings read alike, the source gives them in different places. No constants are given. Whether binding was seen depends on the method and setting.
How the values were obtained:
[1] = target: AcrA^S (soluble AcrA lacking signal peptide and lipidation, Cys25Met) (E. coli) (UniProt P0AE06); experiment: native MS
[2] = target: AcrA^S (soluble AcrA lacking signal peptide and lipidation, Cys25Met) (E. coli) (UniProt P0AE06); experiment: native MS; remark: listed apart in the source

Sequences of proteins named here, by UniProt entry; tags and fusion partners are left off. A change or cut given only in a name is not applied to a line headed by its entry.
UniProt P0AE06, whole entry, looked up, stated change not applied: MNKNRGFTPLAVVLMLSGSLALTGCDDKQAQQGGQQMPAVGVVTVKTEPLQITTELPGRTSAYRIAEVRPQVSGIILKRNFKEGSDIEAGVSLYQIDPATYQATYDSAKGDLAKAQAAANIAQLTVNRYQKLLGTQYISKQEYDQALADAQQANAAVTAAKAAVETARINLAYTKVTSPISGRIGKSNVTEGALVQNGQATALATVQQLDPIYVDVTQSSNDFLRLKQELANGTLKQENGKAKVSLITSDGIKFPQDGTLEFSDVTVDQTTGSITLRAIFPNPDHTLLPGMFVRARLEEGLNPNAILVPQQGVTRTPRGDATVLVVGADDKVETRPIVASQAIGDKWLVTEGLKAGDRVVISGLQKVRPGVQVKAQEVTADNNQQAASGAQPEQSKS

Substance: AcrA^S (soluble AcrA lacking signal peptide and lipidation, Cys25Met) (from UniProt P0AE06 25-397)
- binding [1]: no binding
- binding [2]: no binding

From paper doi:10.1101/2022.12.09.519754
